PMC2694798
No constants are given. Whether binding was seen depends on the method and setting. For some assays here: In cells and extracts the contact can be indirect. Some binding calls cover weakened binding; strength is not graded here.

Chains of the proteins cited; added tags and fusions are not shown. Residues count along the entry.
UniProt Q62765, residues 46-843: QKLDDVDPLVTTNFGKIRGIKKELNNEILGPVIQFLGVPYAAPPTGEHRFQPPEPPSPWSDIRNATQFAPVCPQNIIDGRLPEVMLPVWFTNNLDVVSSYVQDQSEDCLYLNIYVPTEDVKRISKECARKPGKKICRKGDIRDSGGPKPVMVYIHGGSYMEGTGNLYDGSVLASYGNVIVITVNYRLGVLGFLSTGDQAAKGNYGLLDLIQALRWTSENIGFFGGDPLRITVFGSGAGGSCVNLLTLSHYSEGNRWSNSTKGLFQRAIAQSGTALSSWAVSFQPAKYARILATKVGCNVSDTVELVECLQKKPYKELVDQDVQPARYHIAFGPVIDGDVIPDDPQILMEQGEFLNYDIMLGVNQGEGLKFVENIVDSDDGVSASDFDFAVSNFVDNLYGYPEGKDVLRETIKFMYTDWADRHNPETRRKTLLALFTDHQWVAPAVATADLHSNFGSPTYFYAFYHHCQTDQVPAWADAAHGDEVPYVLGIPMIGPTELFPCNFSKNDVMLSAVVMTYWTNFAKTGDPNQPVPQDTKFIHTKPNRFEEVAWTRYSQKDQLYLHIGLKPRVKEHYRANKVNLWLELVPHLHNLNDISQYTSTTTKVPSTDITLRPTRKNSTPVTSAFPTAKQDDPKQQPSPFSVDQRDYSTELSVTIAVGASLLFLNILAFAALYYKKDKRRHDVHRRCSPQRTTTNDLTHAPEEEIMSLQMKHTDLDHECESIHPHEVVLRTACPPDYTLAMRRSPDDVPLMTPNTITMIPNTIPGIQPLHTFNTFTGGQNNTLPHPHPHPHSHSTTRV
UniProt P19491, residues 22-883: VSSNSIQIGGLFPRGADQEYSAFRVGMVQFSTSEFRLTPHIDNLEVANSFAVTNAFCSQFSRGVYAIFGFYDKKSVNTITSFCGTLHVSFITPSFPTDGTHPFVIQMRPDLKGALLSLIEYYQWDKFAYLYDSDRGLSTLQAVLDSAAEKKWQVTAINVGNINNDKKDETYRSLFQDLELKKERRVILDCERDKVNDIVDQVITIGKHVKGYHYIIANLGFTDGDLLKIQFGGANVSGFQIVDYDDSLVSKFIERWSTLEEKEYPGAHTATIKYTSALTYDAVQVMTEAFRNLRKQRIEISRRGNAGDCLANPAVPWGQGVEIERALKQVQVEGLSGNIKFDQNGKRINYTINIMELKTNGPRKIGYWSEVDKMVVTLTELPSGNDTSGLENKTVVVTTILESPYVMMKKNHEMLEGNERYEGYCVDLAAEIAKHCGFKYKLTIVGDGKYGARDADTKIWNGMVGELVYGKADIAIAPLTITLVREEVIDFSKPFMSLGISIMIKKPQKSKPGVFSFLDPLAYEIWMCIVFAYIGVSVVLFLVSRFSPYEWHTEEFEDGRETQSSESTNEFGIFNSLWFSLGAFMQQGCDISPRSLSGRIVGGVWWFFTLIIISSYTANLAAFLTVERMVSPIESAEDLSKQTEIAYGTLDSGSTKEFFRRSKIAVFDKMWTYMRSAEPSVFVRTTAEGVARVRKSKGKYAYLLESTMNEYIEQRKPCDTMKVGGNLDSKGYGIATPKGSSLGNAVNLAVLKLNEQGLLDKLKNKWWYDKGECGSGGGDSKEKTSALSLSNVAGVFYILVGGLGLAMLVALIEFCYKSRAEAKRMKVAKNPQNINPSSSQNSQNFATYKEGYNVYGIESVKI

Columns and labels:
[1] = target: neuroligin1 (rat (endogenous in rat cortex and in cultured rat cortical neurons)) (UniProt Q62765); assay: co-IP; P4 rat cortex membranes solubilised with 1% deoxycholate, dialysed against 50 mM Tris-HCl pH 7.5, 0.1% Triton X-100; 1 mg protein with Nlg or NR2B antibody overnight, Protein G sepharose; western blot
[2] = target: NMDAR subunit 2B (rat (endogenous in rat cortex)) (UniProt Q00960); assay: as above
[3] = target: NMDAR subunit 1 (rat (endogenous in rat cortex)) (UniProt P35439); assay: condition: only after incubation of the beads with carbonate buffer pH11 for 30 minutes; immuno-isolation of membrane organelles; NR1 immuno-isolate on anti-NR1 Dynabeads from P2-3 rat cortex, beads incubated with carbonate buffer pH11 for 30 minutes; western blot, compared with pH7.4
[4] = target: NMDAR subunit 1 (rat (endogenous in rat cortex)) (UniProt P35439); assay: immuno-isolation of membrane organelles; anti-NR1 antibody on Dynabeads with 250 μg of P2-3 rat cortex light membrane supernatant, 5% bovine serum albumin, overnight at 4°C; washed with homogenization buffer without detergent (intact membranes); western blot, percent of total input after subtraction of the control

Q: What does the source list for “AMPA receptor (AMPAR) subunit GluR2 (from UniProt P19491 22-883)”?
A: binding [1]: no binding; binding [2]: no binding

Q: “NMDAR subunit 1 (from UniProt P35439 19-938) (receptor)” was tested. Which binding [1] did it give?
A: Its binding is “binds”.

Q: “neuroligin1 (from UniProt Q62765 46-843)” was tested. Which binding [2] did it give?
A: The binding was “binds”.

Q: And the binding [3]?
A: The binding was “no binding”.

Q: For synapsin1 (from UniProt P09951 1-704), which binding [1] is on record?
A: Its binding is “no binding”.

Q: And the binding [2]?
A: The binding was “no binding”.

B1: vesicular glutamate transporter 1 (protein, UniProt Q62634 1-560)
chain: MEFRQEEFRKLAGRALGRLHRLLEKRQEGAETLELSADGRPVTTHTRDPPVVDCTCFGLPRRYIIAIMSGLGFCISFGIRCNLGVAIVSMVNNSTTHRGGHVVVQKAQFNWDPETVGLIHGSFFWGYIVTQIPGGFICQKFAANRVFGFAIVATSTLNMLIPSAARVHYGCVIFVRILQGLVEGVTYPACHGIWSKWAPPLERSRLATTAFCGSYAGAVVAMPLAGVLVQYSGWSSVFYVYGSFGIFWYLFWLLVSYESPALHPSISEEERKYIEDAIGESAKLMNPVTKFNTPWRRFFTSMPVYAIIVANFCRSWTFYLLLISQPAYFEEVFGFEISKVGLVSALPHLVMTIIVPIGGQIADFLRSRHIMSTTNVRKLMNCGGFGMEATLLLVVGYSHSKGVAISFLVLAVGFSGFAISGFNVNHLDIAPRYASILMGISNGVGTLSGMVCPIIVGAMTKHKTREEWQYVFLIASLVHYGGVIFYGVFASGEKQPWAEPEEMSEEKCGFVGHDQLAGSDESEMEDEVEPPGAPPAPPPSYGATHSTVQPPRPPPPVRDY
Q: For B1, which binding [4] is on record?
A: Its binding is “no binding”.
